# Data: PubChem BioAssay AID1014 (NMMLSC, 2008)
# What follows is the remainder of the data, with few or none of the hits. Activity calls are given as the source filed them. Cut-off read from the data, not from the text of the source: active = inhibition of mean fluorescence above about 33%; inactive = the rest.
# Assay: quorum sensing inhibitors in bacterial reporter, SAR follow-up, flow cytometry, SAR analogs (AID 1014);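 note: Staphylococcus aureus RN6390 with RNAIII-GFP reporter stimulated by AIP; bacteria incubated with compound for 3 hours at 37 °C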
# Conditions: at 20 µM, stronger effect = higher value; inhibition of percent positive cells: flow cytometry fluorescence, measured here: percent reporter-positive cells
compound,measurement,value
O=C(O)c1ccc(Nc2nccc(Nc3ccccc3C(=O)O)n2)cc1,inhibition of mean fluorescence,inactive: -6.3%
same,inhibition of percent positive cells,-0.3%
